# Laboratory results from PubChem BioAssay AID493014 (National Center for Advancing Translational Sciences (NCATS), 2011).
# The whole screen tested about 340,000 compounds, of which about 170 (0.05%) were called active. Inconclusive means that the source gave no clear call. Such entries were picked first, then a sample of the others. The call rests on the fitted dose curve; in most records, active means well fitted inhibition curve with a large enough effect in the signal ratio, with a control signal flat (not every such curve was filed as active); inconclusive means small, poorly fitted or top-dose-only effect, or effect the other way, or a change in a side signal; inactive means flat fitted curve, though single readings scatter; the % refers to the signal ratio. Where the call is inconclusive, the potency comes from a doubtful curve fit.
# Experiment: qHTS Assay to Find Inhibitors of Chronic Active B-Cell Receptor Signaling;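 on activity change, negative = inhibition: plate controls were basal doxycycline-induced cells for no effect and cells given 10 µM MG132 for full effect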
# Conditions: ABC-DLBCL IkBa-CBG/CBR reporter, luminescence ratio (green luciferase fused to IkBa over red control in TMD8 lymphoma cells), 4 h; activity change, negative = inhibition: at 46.1 µM (top of the series) unless noted
# How it was run: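 TMD8 human ABC-DLBCL cells with doxycycline-inducible IκBα–green luciferase fusion and unfused red luciferase, in 0.5% FBS medium; compounds up to 46 uM, 4 h at 37C. Green/red luminescence ratio, filter-overlap corrected, fitted to concentration-response curves.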
# Potency means the concentration at half of the fitted maximal effect.
Structure (SMILES),Potency,"activity change, negative = inhibition"
CC(=O)N1CCN(c2ccc(NC(=O)c3ccccc3Br)cc2Cl)CC1,"inconclusive: 8.2 µM [falling, partial curve]",–
CCOC(=O)[C@@H]1[C@H]2COc3ccc(Br)cc3[C@@H]2N2C(=O)N(c3cccc(F)c3)C(=O)[C@@]12C,–,inconclusive: 16%
O=C(CSc1nc2ccccc2c(=O)n1-c1ccccc1)N1CCCC1,–,inconclusive: -1.25%
O=C1CC(c2ccsc2)c2ccc3ccccc3c2N1 (centres undefined),–,inactive
COCCNC(=O)/C(C#N)=C\c1ccc(CNS(=O)(=O)c2ccc(C)cc2)o1,–,inconclusive: -17.8%
CC(C)=CCCC(C)NC(=O)NC1CCCCC1 (centres undefined),–,inconclusive: 8.26%
O=C(Cn1c(=O)oc2cc(S(=O)(=O)N3CCCCCC3)ccc21)Nc1cccc(C(F)(F)F)c1,–,inactive
O=C(O)c1ccc2ncc(NC(=O)c3ccc(F)cc3)c(=O)n2c1,"inconclusive: 31.6 µM [falling, single point]",–
Cc1cc(C)cc(N=Cc2[nH]c3ccc(Br)c(Cl)c3c2O)c1,–,inconclusive: -27%
O=C(COC(=O)c1cc([N+](=O)[O-])ccc1N1CCOCC1)Nc1cc(F)ccc1F,"inconclusive: 18.4 µM [falling, partial curve, poor fit]",–
O=C(Nc1ccsc1C(=O)O)c1ccc(Cl)cc1,–,inconclusive: 130%
O=C(Nc1nnc(-c2ccc(Cl)cc2)o1)C1CCCCC1,–,inconclusive: 3.52%
Cc1cc(SCC(=O)Nc2cccc(S(=O)(=O)NC3=NCCCCC3)c2)c(C)cc1Br,"inconclusive: 23.1 µM [falling, partial curve, poor fit]",–
Cc1nc(NC(=O)CCc2ccccc2)ccc1Br,"inconclusive: 16.4 µM [falling, partial curve]",–
CN(Cc1ccccc1F)C(=O)c1sccc1-c1ccccc1,–,inconclusive: -0.319%
CN1/C(=C\C(=O)COC(=O)c2ccco2)C(C)(C)c2ccccc21,–,inactive
NCCCn1c(C(=O)c2ccc(Cl)cc2)c2ccc(C(F)(F)F)cc2[n+]1[O-],"inconclusive: 25.9 µM [falling, partial curve]",–
CC(C)C(=O)N1CCN(c2ccc(NC(=O)c3ccc([N+](=O)[O-])o3)cc2Cl)CC1,"inconclusive: 2.82 µM [falling, partial curve]",–
Cc1ccc(C(c2nnnn2CCc2ccccc2)N2CCC(C)CC2)cc1 (centres undefined),–,inactive
CCC1(CC)NC(=O)NC1=O,–,inconclusive: 2.98%
Cc1cc(C(=O)N/N=C/c2cccs2)n[nH]1,"inconclusive: 35.5 µM [falling, single point]",–
N#C/C(=C(/O)C(Cl)c1ccccc1)c1nc2ccccc2s1 (centres undefined),–,inconclusive: 29.6%
O=C(COc1ccc(S(=O)(=O)NC2CCCCC2)cc1)N1CCN(c2cccc(Cl)c2)CC1,–,inconclusive: -22.7%
CC1Cc2nc(SCC(=O)NCC3CCCO3)n(Cc3ccccc3)c(=O)c2S1 (centres undefined),–,inactive
Cc1cc(=O)oc(C)c1C(=O)NC12CC3CC(CC(C3)C1)C2,–,inconclusive: -2.02%
O=C(Nc1ccc(N2CCCCC2)cc1)c1ccc(F)cc1F,"inconclusive: 3.16 µM [falling, full curve, poor fit]",–
Cc1cccc(NC(=O)CSc2nc3c(oc4ccccc43)c(=O)n2-c2ccccc2)c1,–,inconclusive: 12.3%

# Arranged by molar mass (rising): 3 of the compounds above
Structure (SMILES),Potency,"activity change, negative = inhibition"
N#C/C(=C(/O)C(Cl)c1ccccc1)c1nc2ccccc2s1 (centres undefined),–,inconclusive: 29.6%
O=C(CSc1nc2ccccc2c(=O)n1-c1ccccc1)N1CCCC1,–,inconclusive: -1.25%
Cc1cc(C)cc(N=Cc2[nH]c3ccc(Br)c(Cl)c3c2O)c1,–,inconclusive: -27%

# Later entries

Structure (SMILES),Potency,"activity change, negative = inhibition"
Cc1noc(/C=C/N(C)C)c1S(=O)(=O)N1CCCC(C(=O)NCc2ccc(Cl)cc2)C1 (centres undefined),–,inactive
Cc1ccc(C(=O)/C=C2\NCC(C)NC2=O)cc1 (centres undefined),"inconclusive: 31.6 µM [rising, single point]",–
Cc1nn(C)c(C)c1/C=N/NC(=O)CCn1cc([N+](=O)[O-])cn1,–,inconclusive: 1.01%
CC(Oc1ccccc1)C(=O)Nc1cccc(NC(=O)c2ccco2)c1 (centres undefined),"inconclusive: 12.6 µM [falling, partial curve]",–
CC(C)=C1C2CCC1C1C(=O)N(NC(=O)COc3ccc(Cl)c(C)c3)C(=O)C21 (centres undefined),"inconclusive: 1.3 µM [rising, full curve, poor fit]",–
Cc1ccn2cc(-c3cc4ccccc4oc3=O)nc2c1,"inconclusive: 3.98 µM [rising, full curve, poor fit]",–
O=C1S/C(=C\c2cccs2)C(=O)N1c1ccc(O)cc1,"inconclusive: 12.6 µM [falling, partial curve]",–
Cc1c(NC(=O)COC(=O)c2ccc[nH]c2=O)c(=O)n(-c2ccccc2)n1C,–,inactive
O=C(Nc1cccnc1)c1cc(-c2cccs2)on1,"inconclusive: 5.62 µM [falling, single point]",–
O=C(c1cnsn1)N1CCC(CO)(Cc2ccc(Cl)cc2)CC1,–,inactive
COc1ccc2nc(N3C(=O)C(O)=C(C(=O)c4ccco4)C3c3ccc(C)o3)sc2c1 (centres undefined),–,inconclusive: -4.3%
COc1ccc(/C=C/C(=O)Nc2cccc(N3CCOCC3)c2)cc1OC,"inconclusive: 23.1 µM [falling, partial curve, poor fit]",–
CCCCOc1ccc(C(=O)NNC(=O)C2C3C=CC(C3)C2C(=O)O)cc1 (centres undefined),"inconclusive: 2.51 µM [falling, partial curve, poor fit]",–
Cc1c(/C=N\NC(=O)C2COc3ccc(C(C)(C)C)cc3O2)c2ccccc2n1C (centres undefined),–,inactive
COc1cc(C2Nc3ccccc3C(=O)N2c2ccc(Cl)cc2)c(Cl)cc1OCC(=O)O (centres undefined),–,inconclusive: -14.3%
O=C(CN1CCN(Cc2ccccc2)CC1)N1CCCCCC1,–,inactive
CC(=O)Nc1ccc(NC(=O)CN(C)CC(=O)Nc2ccccc2Br)cc1,"inconclusive: 12.6 µM [falling, partial curve, poor fit]",–
Cc1ccccc1C1CC(=O)NC2=C1C(=O)CCC2 (centres undefined),–,inconclusive: -1.44%
CC12CCC(=O)N1C(C(=O)Nc1ccc(F)c(Cl)c1)CS2 (centres undefined),–,inconclusive: 6.11%
CCCOc1ccccc1N/C(=N/c1nc(C)cc(C)n1)NC(=O)Nc1ccc(Cl)cc1,–,inconclusive: -0.635%
CCCCN(C(=O)c1cccc2c(=O)c(C)c(-c3ccccc3)oc12)c1ccccc1,–,inconclusive: 9.72%
CC1(C)Cc2cccc(OCC(=O)NCCOc3ccccc3)c2O1,–,inactive
COc1ccc2[nH]c3c(=O)n(CCCCC(=O)NCCC(C)C)c(=S)[nH]c3c2c1,"inconclusive: 35.5 µM [falling, single point]",–
COc1ccc(NC(=O)c2cc(-c3ccccc3OC)on2)cc1,–,inconclusive: 173%
Cc1cccc(Cn2c(N3CCc4ccccc4C3)nc3c2c(=O)[nH]c(=O)n3C)c1,–,inconclusive: 2.28%
O=C(Nc1ccc(N2CCOCC2)cc1)c1cnccn1,"inconclusive: 17.8 µM [falling, partial curve]",–
N#Cc1ccc(NC(=O)C2=COCCO2)cc1,–,inactive

Structure (SMILES),Potency,"activity change, negative = inhibition"
CC1(C)CC(=O)C=C(Nc2ccc(Cl)c(Br)c2)C1,–,inactive
Cc1ccc(CS(=O)(=O)c2nc3c(c(N(C)C)n2)CCCC3)cc1,–,inactive
CN(C(=O)COC(=O)C(Cc1ccccc1)NC(=O)c1ccccc1)c1ccccc1 (centres undefined),–,inconclusive: -7.63%
COc1ccc(-n2c(CN3CCC(C(N)=O)CC3)nc3ccc([N+](=O)[O-])cc3c2=O)c(OC)c1,–,inconclusive: -23.5%
O=C1c2[nH]nc(-c3ccccc3O)c2C(c2ccccc2F)N1Cc1ccco1 (centres undefined),–,inactive
CCc1cc2c(=O)c(-c3cscn3)coc2c(CN(C)C)c1O,"inconclusive: 3.66 µM [rising, full curve, poor fit]",–
O=C(/C=C/Nc1ccc(F)cc1Br)c1ccccc1,"inconclusive: 23.1 µM [falling, partial curve]",–
CCC(=O)Nc1ccc(C(=O)OCc2ccc(Cl)c(Cl)c2)cc1,–,inactive
Brc1ccc(-c2nnc(-c3cccc(Br)c3)o2)cc1,–,inconclusive: 15.8%
COc1ccc(-c2cc(C(F)F)n3ncc(C(=O)Nc4cc(C)on4)c3n2)cc1,"inconclusive: 35.5 µM [falling, single point]",–
O=C(NNC(=S)NC(=O)c1ccccc1[N+](=O)[O-])c1ccccc1,–,inconclusive: 377%
CC(=O)c1c(C)[nH]c(C(=O)OCC(=O)NCCc2ccc(Cl)cc2)c1C,–,inconclusive: -15.1%
O=C1OC(/C(=C\Nc2cc(Cl)ccc2O)[N+](=O)[O-])c2ccccc21 (centres undefined),–,inactive
COc1ccc([N+](=O)[O-])cc1NC1CCCCC1,–,inconclusive: 23.4%
Cc1cc(-c2onc3ccc(Cl)cc23)ccc1O,–,inactive
Cc1cc(Sc2nnc(N)s2)c2ccccc2n1,–,inconclusive: -14%
c1ccc(CN2CCN(c3ncnc4c3[nH]c3ccccc34)CC2)cc1,–,inactive
COc1cccc(OCCOCC(O)CN2CCN(Cc3ccc(Cl)cc3)CC2)c1 (centres undefined),–,inactive
O=C(CCc1c[nH]c2ccccc12)N/N=C/c1ccc2c(c1)OCO2,"inconclusive: 22.4 µM [falling, single point]",–
COC(=O)CNC(=O)C1CCN(C(=O)OCc2ccccc2)CC1,"inconclusive: 0.103 µM [falling, full curve, poor fit]",–
CCn1nccc1C(=O)Nc1ccc(Cl)cc1Cl,–,inactive
COC(=O)c1ccc(NC(=O)CSc2nc(=O)n(Cc3ccco3)c3c2CCC3)cc1,–,inconclusive: 9.6%
CN(Cc1cccc(F)c1)C(=O)c1ccc(NS(=O)(=O)c2ccc3[nH]c(=O)[nH]c3c2)cc1,–,inconclusive: 0.569%
CN(C)c1nc(Cl)nc(NCCOc2ccccc2)n1,–,inconclusive: 6.95%
O=C(Nc1nnc(-c2cccnc2)o1)c1ccccc1Cl,"inconclusive: 20 µM [falling, partial curve, poor fit]",–

# Record cards (already shown). Order of values: Potency | activity change, negative = inhibition
# COCCNC(=O)/C(C#N)=C\c1ccc(CNS(=O)(=O)c2ccc(C)cc2)o1 is entered as – | inconclusive: -17.8%
# COc1ccc(-n2c(CN3CCC(C(N)=O)CC3)nc3ccc([N+](=O)[O-])cc3c2=O)c(OC)c1 is entered as – | inconclusive: -23.5%
# CCOC(=O)[C@@H]1[C@H]2COc3ccc(Br)cc3[C@@H]2N2C(=O)N(c3cccc(F)c3)C(=O)[C@@]12C is entered as – | inconclusive: 16%
# CC(C)C(=O)N1CCN(c2ccc(NC(=O)c3ccc([N+](=O)[O-])o3)cc2Cl)CC1 is entered as inconclusive: 2.82 µM [falling, partial curve] | –
